# Test results: PMC9247460
# The chains behind the UniProt entries cited, without tags or fusion partners. Where a name states a change or a piece, a line headed by the entry shows the natural chain unless it says otherwise.
# UniProt P31946: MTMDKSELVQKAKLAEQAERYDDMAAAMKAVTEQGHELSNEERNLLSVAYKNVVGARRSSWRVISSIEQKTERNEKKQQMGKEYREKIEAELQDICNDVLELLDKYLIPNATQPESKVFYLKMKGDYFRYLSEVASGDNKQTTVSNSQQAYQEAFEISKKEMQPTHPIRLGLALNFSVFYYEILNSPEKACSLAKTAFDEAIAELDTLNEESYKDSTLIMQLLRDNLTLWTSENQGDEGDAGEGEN
# UniProt Q09472: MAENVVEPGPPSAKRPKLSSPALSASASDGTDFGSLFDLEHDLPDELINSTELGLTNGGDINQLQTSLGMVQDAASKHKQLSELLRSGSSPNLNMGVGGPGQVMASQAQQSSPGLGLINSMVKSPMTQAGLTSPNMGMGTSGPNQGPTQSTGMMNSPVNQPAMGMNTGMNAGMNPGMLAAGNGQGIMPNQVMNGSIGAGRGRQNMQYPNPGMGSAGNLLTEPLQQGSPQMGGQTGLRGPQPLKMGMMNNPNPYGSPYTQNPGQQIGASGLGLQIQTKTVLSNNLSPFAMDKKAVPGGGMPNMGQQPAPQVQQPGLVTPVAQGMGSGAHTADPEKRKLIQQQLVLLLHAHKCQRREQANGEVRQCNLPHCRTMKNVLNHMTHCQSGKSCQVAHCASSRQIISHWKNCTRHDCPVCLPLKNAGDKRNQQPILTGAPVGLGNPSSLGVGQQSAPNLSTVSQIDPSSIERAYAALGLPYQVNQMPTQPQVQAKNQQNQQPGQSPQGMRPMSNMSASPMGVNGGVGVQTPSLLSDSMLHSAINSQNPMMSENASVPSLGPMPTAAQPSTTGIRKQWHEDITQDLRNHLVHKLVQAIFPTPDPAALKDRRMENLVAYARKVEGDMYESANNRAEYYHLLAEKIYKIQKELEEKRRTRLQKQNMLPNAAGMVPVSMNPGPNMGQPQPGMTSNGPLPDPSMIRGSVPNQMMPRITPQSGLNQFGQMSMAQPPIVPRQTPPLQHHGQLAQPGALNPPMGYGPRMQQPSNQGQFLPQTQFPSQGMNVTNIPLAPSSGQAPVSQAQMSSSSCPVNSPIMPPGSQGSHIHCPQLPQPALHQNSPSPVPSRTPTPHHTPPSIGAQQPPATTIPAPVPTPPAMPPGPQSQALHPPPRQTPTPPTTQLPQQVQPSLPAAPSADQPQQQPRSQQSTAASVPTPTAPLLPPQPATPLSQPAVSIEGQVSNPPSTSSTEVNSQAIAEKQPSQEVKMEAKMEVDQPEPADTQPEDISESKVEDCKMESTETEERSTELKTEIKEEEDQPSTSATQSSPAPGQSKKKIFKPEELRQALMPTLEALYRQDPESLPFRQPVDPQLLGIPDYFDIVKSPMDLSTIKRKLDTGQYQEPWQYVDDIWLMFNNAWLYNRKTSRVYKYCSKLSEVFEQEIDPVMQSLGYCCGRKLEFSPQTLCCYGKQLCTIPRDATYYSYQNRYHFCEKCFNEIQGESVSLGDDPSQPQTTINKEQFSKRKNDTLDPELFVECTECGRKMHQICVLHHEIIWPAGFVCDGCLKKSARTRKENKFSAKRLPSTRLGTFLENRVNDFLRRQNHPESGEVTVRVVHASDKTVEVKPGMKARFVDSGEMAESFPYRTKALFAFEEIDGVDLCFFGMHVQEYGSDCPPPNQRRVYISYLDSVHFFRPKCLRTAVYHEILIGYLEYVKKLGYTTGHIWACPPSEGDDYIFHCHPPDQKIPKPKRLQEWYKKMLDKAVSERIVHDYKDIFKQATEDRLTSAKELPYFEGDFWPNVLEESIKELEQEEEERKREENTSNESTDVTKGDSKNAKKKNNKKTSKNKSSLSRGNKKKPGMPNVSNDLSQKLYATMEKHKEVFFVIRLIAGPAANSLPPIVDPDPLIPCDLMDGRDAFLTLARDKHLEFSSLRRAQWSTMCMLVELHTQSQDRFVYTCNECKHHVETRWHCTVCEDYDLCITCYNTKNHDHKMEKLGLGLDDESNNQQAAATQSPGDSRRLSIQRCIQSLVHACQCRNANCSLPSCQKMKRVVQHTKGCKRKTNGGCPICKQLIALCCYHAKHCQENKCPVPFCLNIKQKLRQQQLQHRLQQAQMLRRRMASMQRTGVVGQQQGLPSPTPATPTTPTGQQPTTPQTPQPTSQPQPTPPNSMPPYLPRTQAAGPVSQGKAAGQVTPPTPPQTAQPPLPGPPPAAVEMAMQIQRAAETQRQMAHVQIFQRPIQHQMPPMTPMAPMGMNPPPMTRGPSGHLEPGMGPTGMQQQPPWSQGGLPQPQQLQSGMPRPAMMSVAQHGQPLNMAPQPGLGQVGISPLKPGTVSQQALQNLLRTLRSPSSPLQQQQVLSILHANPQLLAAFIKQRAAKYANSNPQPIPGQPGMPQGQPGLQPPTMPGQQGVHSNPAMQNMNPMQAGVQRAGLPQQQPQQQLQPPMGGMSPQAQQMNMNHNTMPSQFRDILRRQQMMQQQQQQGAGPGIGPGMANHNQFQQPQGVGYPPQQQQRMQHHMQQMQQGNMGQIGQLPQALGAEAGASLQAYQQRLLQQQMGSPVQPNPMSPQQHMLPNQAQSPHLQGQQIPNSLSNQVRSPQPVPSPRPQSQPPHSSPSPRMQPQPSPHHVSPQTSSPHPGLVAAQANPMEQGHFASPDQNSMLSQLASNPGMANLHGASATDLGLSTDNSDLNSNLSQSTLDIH
# No constants are given. Whether binding was seen depends on the method and setting. Binding seen in cells or lysates may run through a third protein. Here binding means that the protein was enriched with, or labelled near, the bait; the list need not be complete.
# Target: 14-3-3β/α (YWHAB) (human (endogenous in U87MG)) (UniProt P31946)
# Experiment: affinity purification with mass spectrometry; Co-IP with anti-14-3-3β/α antibody from U87MG cell extracts, silver stain, specific protein band analysed by tandem mass spectrometry (LC-MS/MS)
substance,measurement,value
E1A binding protein p300 (EP300) (from UniProt Q09472 1-2414),binding,binds
